Data reported in article PMC5677176.
These are yes or no findings as the source states them, for the method shown. In cells and extracts the contact can be indirect. Some binding calls cover weakened binding; strength is not graded here. Where a sequence is shown, tags or fusion partners need not be part of it.

Molecular target: T1, Xenopus Dvl2 (Xdsh), full-length, myc-tagged (Xenopus) (UniProt P51142)
T1 sequence: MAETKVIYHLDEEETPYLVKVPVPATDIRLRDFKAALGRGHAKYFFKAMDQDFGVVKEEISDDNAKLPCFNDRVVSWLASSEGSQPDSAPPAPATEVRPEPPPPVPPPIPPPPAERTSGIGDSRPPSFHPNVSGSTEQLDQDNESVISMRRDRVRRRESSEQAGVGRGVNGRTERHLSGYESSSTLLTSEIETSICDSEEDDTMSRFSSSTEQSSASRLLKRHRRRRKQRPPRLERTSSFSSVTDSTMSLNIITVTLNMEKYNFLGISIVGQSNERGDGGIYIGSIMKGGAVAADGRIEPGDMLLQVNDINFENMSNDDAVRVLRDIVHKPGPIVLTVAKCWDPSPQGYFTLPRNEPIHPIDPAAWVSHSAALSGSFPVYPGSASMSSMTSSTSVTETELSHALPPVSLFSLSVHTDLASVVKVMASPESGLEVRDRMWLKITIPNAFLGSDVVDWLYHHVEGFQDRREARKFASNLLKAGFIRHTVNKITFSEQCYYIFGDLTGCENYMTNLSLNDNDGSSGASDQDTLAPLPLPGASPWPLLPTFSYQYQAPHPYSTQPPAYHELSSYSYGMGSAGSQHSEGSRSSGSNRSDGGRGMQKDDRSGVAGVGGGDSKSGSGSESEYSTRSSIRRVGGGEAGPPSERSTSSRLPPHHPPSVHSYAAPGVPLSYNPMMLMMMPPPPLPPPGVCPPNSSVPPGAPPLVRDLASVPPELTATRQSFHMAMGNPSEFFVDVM
Assay: co-IP; HEK293T cells transfected for 24 h; lysis in 150 mM NaCl, 50 mM Tris-HCl pH 7.5, 1% Triton X-100; precipitation with anti-myc agarose beads, 2 h at 4 °C; five washes with 500 mM NaCl; blots with anti-myc or anti-Flag

binding: binds
B1: Flag-Lurap1 (zebrafish leucine repeat adaptor protein 1, full-length) (protein, UniProt A7MC09 1-286)
chain: MEESNNTCESVPDLKDLELKVGRKTPEGLLKWMREEHKMVSHHQTDNNETEKKGLDGKIRKLKMEMAHLRAADVKILNQLLALHEGIEAVKWLLEERGALTSRCSSLTSSQYSLGEGPDTSWRGSWSSLQDPHDELDNISIGSYLDTLADELDEYCPSSGTESMLCATPMGTGGGVSSSTGSGSRPPQVKTDATKEEAQVWNKAPSETARVNKTNGTLDKTATQLVSSDSPRACLAEKLGKNLSPKVKPYKNGKVELESCKKNGKVQLEYDAHWRWVQSQDDVTFL
